Values quoted from earlier work, collected in publication PMC13237142, “Proteome-wide quantification of inositol pyrophosphate-protein interactions” (Nature Communications, 2026).

Settings: variety of human cell lines; cited from earlier work
In the case of `O=P(O)(O)O[C@@H]1[C@@H](OP(=O)(O)O)[C@@H](OP(=O)(O)O)[C@@H](OP(=O)(O)OP(=O)(O)O)[C@H](OP(=O)(O)O)[C@H]1OP(=O)(O)O` [1PP-InsP5, 1-diphosphoinositol pentakisphosphate], the “Levels in mammalian cells” value is listed as 0.02 to 0.1 µM.
For `O=P(O)(O)O[C@H]1[C@@H](OP(=O)(O)O)[C@H](OP(=O)(O)O)[C@@H](OP(=O)(O)OP(=O)(O)O)[C@H](OP(=O)(O)O)[C@H]1OP(=O)(O)O` [5PP-InsP5, 5-diphosphoinositol pentakisphosphate], the “Levels in mammalian cells” value is listed as 1 to 5 µM.
In the case of `O=P(O)(O)O[C@@H]1[C@@H](OP(=O)(O)O)[C@H](OP(=O)(O)OP(=O)(O)O)[C@@H](OP(=O)(O)O)[C@H](OP(=O)(O)OP(=O)(O)O)[C@@H]1OP(=O)(O)O` [1,5(PP)2-InsP4, bis-1,5-diphosphoinositol tetrakisphosphate], the “Levels in mammalian cells” value is listed as 0.1 to 0.5 µM.
